Laboratory results published in PubChem BioAssay AID1439 (NMMLSC, 2008).
About 770 (0.35%) of roughly 220,000 compounds were called active. Inconclusive means that the source gave no clear call. Such entries were picked first, then a sample of the others. Rule as the data show it: active = binding response below about 49% or above about 150%; inconclusive = no clear call, values can overlap the other calls; inactive = in between.

The chains behind the UniProt entries cited, without tags or fusion partners.
UniProt P09471, whole entry, looked up: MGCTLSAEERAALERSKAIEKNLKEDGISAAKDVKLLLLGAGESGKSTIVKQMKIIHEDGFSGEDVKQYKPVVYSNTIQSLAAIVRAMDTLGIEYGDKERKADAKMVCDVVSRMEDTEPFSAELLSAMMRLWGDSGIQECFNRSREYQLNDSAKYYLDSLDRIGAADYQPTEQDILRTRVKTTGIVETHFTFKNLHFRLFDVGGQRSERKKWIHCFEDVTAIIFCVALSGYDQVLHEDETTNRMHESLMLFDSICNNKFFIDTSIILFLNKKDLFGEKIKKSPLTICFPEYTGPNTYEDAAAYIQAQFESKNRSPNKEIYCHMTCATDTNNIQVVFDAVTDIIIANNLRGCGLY

Biological target: Guanine nucleotide-binding protein G(o) subunit alpha (Homo sapiens) (UniProt P09471)
Test: RGS7-Galphao binding modulators, primary screen, biochemical, multiplexed bead flow cytometry (AID 1439);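 also: fluorescent Galphao held in activated GDP-AlF4 state binding bead-coupled RGS7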
Conditions: at 10 µM, actives lie on both sides

Compound | binding response (% of control)
O=C(CCN1CCN(CCO)CC1)Nc1ccc(C2CCCC2)cc1 | inconclusive: 99.5%
COc1ccc(-c2c(C(F)(F)F)nn(C)c2NC(C)=O)cc1 | inconclusive: 98.7%
COc1ccc(OC)c(NC(=O)c2cc3oc4ccccc4c3cc2O)c1 | inconclusive: 44.2%
CCOC(=O)C1(Cc2cccc(OC)c2)CCCN(C(=O)c2cc(C)[nH]n2)C1 (stereo not given) | inactive: 84%
COc1ccc(C2C(C(=O)c3cccs3)=C(O)C(=O)N2c2cccc(C)n2)cc1OC (stereo not given) | inconclusive: 65.5%
CNC(=O)c1csc(Cc2c(Cl)sc3ccc(Cl)cc23)n1 | inconclusive: 183%
CC(=O)Nc1ccccc1NC(=O)c1ccc(C)c(C)c1 | inactive: 103%
COc1ccc(C(=O)O)c(OC)n1 | inconclusive: 125%
O=C(CN1CCN(c2ncc(C(F)(F)F)cc2Cl)CC1)NC(=O)NCc1ccccc1 | inactive: 103%
Cc1ccc(NC(=S)N/N=C/c2c(C)[nH]c3ccccc23)cc1 | inconclusive: 513%
COc1ccc(C(=O)CSc2n[nH]c(=O)n2Cc2ccco2)cc1 | inconclusive: 77.2%
FC(F)Oc1ccc(NC(=S)NNc2ccnc3cc(Cl)ccc23)cc1 | inactive: 95.7%
CCCc1n[nH]c(=S)n1Cc1ccco1 | inconclusive: 99.2%
Cc1ccnc(NC(=O)CCC(=O)N(CC(=O)NC2CCCCC2)C2CCCC2)c1 | inconclusive: 105%
COc1ccc(C(CC(=O)N2CCCCC2)C(C)C)cc1 (stereo not given) | inconclusive: 107%
CCN(CC)c1ccc(S(=O)(=O)N2CCOCC2)cc1NC(=O)CNCc1ccccc1 | inconclusive: 213%
COC(=O)c1c(C)[nH]c(C)c1C(C)=O | inconclusive: 95.1%
Cc1cc(C)c(NC(=O)CN)c(C)c1 | inactive: 104%
Cc1cc(NC(=O)COC(=O)C2CCC(=O)N2)c([N+](=O)[O-])cc1C (stereo not given) | inactive: 101%
Cc1nn(-c2ccccc2)c2nc(-c3cccs3)cc(C(=O)NN)c12 | active: 198% [activator]
COC(=O)c1c(-c2ccc(F)cc2)csc1NC(=O)C1CCCO1 (stereo not given) | inconclusive: 78.4%
O=C1/C(=C\c2ccc(O)c(O)c2)N=C2CCCCCN12 | inconclusive: -443%
COc1ccc(C(=O)N/N=C/c2ccccc2C(=O)O)cc1OC | inconclusive: 102%

Compound | binding response (% of control)
CCn1c(C(=O)N2CCCC(C(=O)O)C2)cc2sccc21 (stereo not given) | inactive: 93.4%
CCN(CC(=O)Nc1ccc(NC(C)=O)cc1)C(=O)c1n[nH]c(=O)c2ccccc12 | inconclusive: 89.8%
O=C(C1=C[C@@H](c2ccc(Br)cc2)C[C@@H](OCc2ccc(CO)cc2)O1)N1CCN(Cc2ccc3c(c2)OCO3)CC1 | inactive: 99.8%
O=C1CCc2cc(S(=O)(=O)NC(Cc3ccccc3)C(=O)NCCC3=CCCCC3)ccc2N1 (stereo not given) | inactive: 143%
Cn1c(SCC(=O)NNC(=O)Nc2ccccc2)nnc1-c1ccccc1 | inconclusive: 114%
CCNc1nc(NCC)nc(N/N=C/c2ccc(OC)cc2)n1 | inconclusive: 31.8%
CCCC(=O)Nc1ccc(NC(=O)c2ccccc2)nc1 | inconclusive: 80.6%
CCN1c2ccc(S(=O)(=O)N3CCOCC3)cc2N(Cc2ccc(OC)cc2)C1C (stereo not given) | active: 49.9%
COc1ccc(-c2nc(-c3cccnc3)no2)cc1 | inconclusive: 98.1%
O=C(Nc1cc(S(=O)(=O)Nc2ccccc2Cl)ccc1O)c1sc2cc(Cl)ccc2c1Cl | inactive: 96.3%
NCCCC[C@H]1CNC(=O)C(=O)N1CCc1cccc2ccccc12 | inconclusive: 85%
N#Cc1ccc(-c2csc(NC(=O)c3ccc(N4C(=O)CCC4=O)cc3)n2)cc1 | inconclusive: 68.4%
CC1Cc2ccccc2N1C(=O)C1CCCCN1S(=O)(=O)c1ccccc1 (stereo not given) | inactive: 89.5%
COc1ccccc1N1CCN(C2CCN(C(=O)COc3ccccc3)CC2)CC1 | inconclusive: 94.4%
COc1ccccc1NC(=O)C1=C(C)NC(SCC(=O)Nc2ccc(C(=O)O)cc2)=C(C#N)C1c1cccs1 (stereo not given) | inconclusive: 102%
O=C(Nc1ccccc1)Nc1ccc(Cl)c(S(=O)(=O)N2CCOCC2)c1 | inconclusive: 122%
O=C(CCc1nc2ccccc2c(=O)[nH]1)NC1CCN(Cc2ccccc2)CC1 | inactive: 111%
CCOc1ccsc1C(=O)O | inconclusive: 112%
C=CCSC(=S)Nc1c(C)n(C)n(-c2ccccc2)c1=O | inconclusive: 87.8%
O=C(Cc1ccccc1[N+](=O)[O-])NCc1ccc(Cl)cc1 | active: 176% [activator]
Cc1nc(N=Nc2ccc(O)cc2)n[nH]1 | inconclusive: 100%
COc1ccc(Cl)cc1NC(=O)Nc1ccccc1SC | inconclusive: 76.8%
O=C(COC(=O)c1ccc2c(=O)n3c(nc2c1)CCC3)NC1CCS(=O)(=O)C1 (stereo not given) | inconclusive: 102%

Compound | binding response (% of control)
Cc1ccc(C(C(=O)NC2CCCCC2)N(CC2CCCO2)C(=O)CNC(=O)c2ccco2)cc1 (stereo not given) | inactive: 94.1%
CN(C(=O)c1cc2c(s1)-c1ccccc1S(=O)(=O)C2)c1ccccc1 | inconclusive: 108%
CC(C)c1nnc(NC(=O)CCC(=O)NCCc2ccccc2)s1 | inconclusive: 44.5%
COC/C=C/C1=CC2=CC(=O)C(C)(OC(=O)CCC(=O)OC)C(=O)C2=CO1 (stereo not given) | inconclusive: 39.5%
COc1ccc(CC2(CO)CCN(Cc3ccncc3)CC2)cc1 | inconclusive: 72.5%
CC(C)Oc1cccc(NC(=O)c2cnccc2C(F)(F)F)c1 | inconclusive: 10.8%
O=C1CCCc2oc3ccc(NS(=O)(=O)c4cccc5cccnc45)cc3c21 | inconclusive: 87.5%
COc1ccc(NC(=S)N/N=C/c2cccn2Cc2ccc(F)cc2)cc1 | inconclusive: 99.9%
COc1ccc(-n2c(CN3CCC(C)CC3)nc3ccc([N+](=O)[O-])cc3c2=O)c(OC)c1 | inconclusive: 89.3%
O=C(O)CSc1cc(C(=O)c2cc(F)ccc2O)cn2c(=O)c3c(-c4ccccc4)csc3nc12 | inconclusive: 68.5%
COC(=O)c1cc(NC(=O)c2cc(C(C)(C)C)nn2Cc2ccc(F)cc2)ccc1N1CCOCC1 | inconclusive: 107%
C=CCSc1nnc2nc3[nH]c4c(C)cccc4c3nn12 | inactive: 99.2%
COc1ccc(NC(=S)NCc2cccnc2)cc1OC | inconclusive: 123%
COc1ccc(NC(=O)C2=NNC(=O)CC2)cc1S(=O)(=O)N1CCCCC1 | inconclusive: 147%
CCN(CC)S(=O)(=O)c1cccc(NN=c2c(=O)c3ccccc3c2=O)c1 | inconclusive: 92.7%
Cn1nc(C(C)(C)C)cc1C(=O)NCc1cc(F)cc2c1OCOC2 | inconclusive: 120%
CN(C(=O)COC(=O)c1ccc(-c2ccc(O)cc2)cc1)C1CCS(=O)(=O)C1 (stereo not given) | inconclusive: 99.4%
CCN(CC)C(=S)SCC(=O)NC12CC3CC(CC(C3)C1)C2 | inactive: 95.2%
O=C(CNC(=S)N(CCCN1CCOCC1)Cc1cccs1)N1CCCCCC1 | inactive: 96.4%
COc1ccc(C2c3c(noc3C)CC(C)(O)C2C(C)=O)cc1 (stereo not given) | inconclusive: 104%
O=C(CSc1nnc(-c2ccco2)o1)c1ccc(O)cc1O | inconclusive: 123%
CN(C)CCNC(C(=O)Nc1cc(Cl)cc(Cl)c1)c1ccccc1 (stereo not given) | inconclusive: 97.6%
O=C1[C@@H]2C(c3cccnc3)=NO[C@@H]2C(=O)N1c1ccc(Cl)cc1Cl | inconclusive: 69.2%

Shown tab-delimited: part of the list above.
Compound	binding response (% of control)
Cc1ccc(C(C(=O)NC2CCCCC2)N(CC2CCCO2)C(=O)CNC(=O)c2ccco2)cc1 (stereo not given)	inactive: 94.1%
CN(C(=O)c1cc2c(s1)-c1ccccc1S(=O)(=O)C2)c1ccccc1	inconclusive: 108%
CC(C)c1nnc(NC(=O)CCC(=O)NCCc2ccccc2)s1	inconclusive: 44.5%

Some of these compounds in order of number of heavy atoms, rising:
Compound | binding response (% of control)
CCOc1ccsc1C(=O)O | inconclusive: 112%
COc1ccc(C(=O)CSc2n[nH]c(=O)n2Cc2ccco2)cc1 | inconclusive: 77.2%
O=C(COC(=O)c1ccc2c(=O)n3c(nc2c1)CCC3)NC1CCS(=O)(=O)C1 (stereo not given) | inconclusive: 102%
Cc1ccnc(NC(=O)CCC(=O)N(CC(=O)NC2CCCCC2)C2CCCC2)c1 | inconclusive: 105%

The results go on.

Compound | binding response (% of control)
O=C(Cc1ccc(Br)cc1)N(Cc1ccccc1)c1ccccn1 | active: 151% [activator]
O=C(NCc1ccccn1)C(=O)NCC(c1ccco1)N1CCN(c2ccc(F)cc2)CC1 (stereo not given) | inconclusive: 90.9%
Cc1ccc(-c2ccc([C@H]3[C@@H]4C=CCC[C@@]4(C)C(=O)N3Cc3ccccc3)c(F)c2)cc1 | inconclusive: 133%
O=C(Oc1ccc(C(=S)N2CCC(O)CC2)cc1)c1ccc(Cl)cc1 | inactive: 100%
Cc1ccc2nc(-c3cccnc3)c(NC3CCCCC3)n2c1 | inactive: 117%
CN(C)CCC(=O)c1ccc(F)cc1 | inconclusive: 37.4%
CC1CCc2c(sc(NC(=S)NC(=O)c3ccccc3)c2C#N)C1 (stereo not given) | inconclusive: 89.8%
COc1ccccc1/C=C/C=N/n1c(-c2n[nH]c3c2CCC3)n[nH]c1=S | inconclusive: 123%
O=C(O)c1ccc(-c2nnn(Cc3ccccc3F)n2)cc1 | inconclusive: 61.9%
N#CCCCN1C(=O)C(=C(C#N)C#N)c2ccccc21 | inactive: 99.5%
O=C(CCCc1nc(-c2ccccc2Cl)no1)N1CCOCC1 | inactive: 99.4%
COc1ccc(CC(=O)Nc2cc(C)ccc2O)cc1OC | inconclusive: 114%
CC1(C)CC=C(NNC(=O)c2cccnc2)C(=O)C1 | inconclusive: 94.8%
CC1(C)CC(=O)C2=C(C1)N(c1ccc(F)cc1)C(N)=C(C#N)C2c1cccs1 (stereo not given) | inactive: 107%
Cc1ccc(N2CN(CCc3ccccc3)CNC2=S)cc1 | inconclusive: 50.1%
O=C(COc1ccccc1)Nc1ccc(Cl)cc1Cl | inactive: 99.8%
CCCCNC(=O)CSc1nc2ccsc2c(=O)n1C1CCN(C(=O)OCC)CC1 | inactive: 98.5%
CCc1ccc(CN(C)C(=O)CCc2nnc(CCc3ccccc3OC)o2)nc1 | inactive: 95.6%
Cc1ccc(-c2ccccc2)n1-c1cccc(C(=O)O)c1 | inconclusive: 74.5%
COC(=O)N/N=C/C1=CCC2CC1C2(C)C (stereo not given) | inconclusive: 83.3%
Cc1ccc([N+](=O)[O-])cc1NC(=O)/C=C/C(=O)O | inconclusive: 133%
